Results are given in words; binding and its absence hold for the method and conditions named. Binding seen in cells or lysates may run through a third protein. Some results given as binding are weak or reduced against the parent protein; the word gives no strength.
Target: NF-κB p65 (mouse) (UniProt Q04207)
Assay: co-IP; murine Rxrα and p65; cells, constructs and precipitated protein not told

Amino acid sequences for entries named in this document (tags omitted).
UniProt Q04207: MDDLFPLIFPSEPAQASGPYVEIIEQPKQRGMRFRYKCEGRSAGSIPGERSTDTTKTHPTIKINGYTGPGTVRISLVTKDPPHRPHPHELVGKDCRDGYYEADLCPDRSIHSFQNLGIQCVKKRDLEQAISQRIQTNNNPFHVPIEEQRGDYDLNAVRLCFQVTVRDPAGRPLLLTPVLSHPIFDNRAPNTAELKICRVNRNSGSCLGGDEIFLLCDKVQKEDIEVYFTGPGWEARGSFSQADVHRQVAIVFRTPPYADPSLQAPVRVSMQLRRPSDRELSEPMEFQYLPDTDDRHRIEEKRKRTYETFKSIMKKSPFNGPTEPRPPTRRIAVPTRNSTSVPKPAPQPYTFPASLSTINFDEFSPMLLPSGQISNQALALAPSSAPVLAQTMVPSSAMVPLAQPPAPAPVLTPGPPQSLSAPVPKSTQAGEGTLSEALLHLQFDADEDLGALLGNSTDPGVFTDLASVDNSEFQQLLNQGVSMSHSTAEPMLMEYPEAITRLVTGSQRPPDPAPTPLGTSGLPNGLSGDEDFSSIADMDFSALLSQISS

- binding: binds
B1: retinoid X receptor α (Rxrα) (protein, UniProt P28700 1-467)
chain: MDTKHFLPLDFSTQVNSSSLNSPTGRGSMAVPSLHPSLGPGIGSPLGSPGQLHSPISTLSSPINGMGPPFSVISSPMGPHSMSVPTTPTLGFGTGSPQLNSPMNPVSSTEDIKPPLGLNGVLKVPAHPSGNMASFTKHICAICGDRSSGKHYGVYSCEGCKGFFKRTVRKDLTYTCRDNKDCLIDKRQRNRCQYCRYQKCLAMGMKREAVQEERQRGKDRNENEVESTSSANEDMPVEKILEAELAVEPKTETYVEANMGLNPSSPNDPVTNICQAADKQLFTLVEWAKRIPHFSELPLDDQVILLRAGWNELLIASFSHRSIAVKDGILLATGLHVHRNSAHSAGVGAIFDRVLTELVSKMRDMQMDKTELGCLRAIVLFNPDSKGLSNPAEVEALREKVYASLEAYCKHKYPEQPGRFAKLLLRLPALRSIGLKCLEHLFFFKLIGDTPIDTFLMEMLEAPHQAT

— article PMC7681083
